Among all 140,000 compounds or so, about 4,300 (3.1%) were called active. This list was built around the results that the source calls inconclusive (neither active nor inactive); the mix of calls is not that of the screen.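 Rule for the calls: active = readout at or below -70, meaning at least 70% loss of cells showing the perinucleolar compartment, a nuclear body marking cancer cells; inconclusive = readout between -30 and a set limit; inactive = the rest.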
Experiment: High Content Assay for Compounds that inhibit the Assembly of the Perinucleolar Compartment;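 note: plate controls were DMSO wells for no effect and camptothecin positive control wells for full effect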
Details: PC3M PTB-GFP, PNC prevalence imaging, 16 h; at 10 µM; stronger effect = lower value
In short: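 Read-out is percentage of cells bearing a perinucleolar compartment, from automated 20x imaging of fixed, Hoechst-stained PC3M PTB-GFP cells. Cells were seeded 4 h, then exposed 16 h to compound (23 nl of library stock) in duplicate plates.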

| SMILES | activity change (PNC), negative = inhibition |
| --- | --- |
| COc1ccc(-n2c(Cn3c(=O)sc4ccccc43)nnc2SC)cc1 | inconclusive: -34.5% |
| N/C(=N\OC(=O)Oc1ccccc1)c1ccc([N+](=O)[O-])cc1 | active: -121% |
| O=C(CCn1cccc1)NCc1ccc2c(c1)OCO2 | inactive: 4.53% |
| Cc1nn(-c2ccccc2)c(OC(=O)c2cccs2)c1S(=O)(=O)c1ccccc1 | inactive: 26.7% |
| Cc1ccc2nc(/C(C#N)=C/c3ccc(-c4cccc([N+](=O)[O-])c4)o3)[nH]c2c1 | inconclusive: -36.4% |
| O=C(NCCSc1c(-c2ccccc2)[nH]c2ccccc12)c1cc2ccccc2oc1=O | active: -86.4% |
| Cc1ccc(S(=O)(=O)N(C)C)cc1NC(=S)NC(=O)C12CC3CC(CC(C3)C1)C2 | inconclusive: -53.9% |
| O=c1[nH]c(C2CCCN(S(=O)(=O)c3ccccc3)C2)nc2c1nnn2Cc1ccccc1 (configuration not stated) | inconclusive: -50.2% |
| O=C(Cn1c(=O)n(-c2ccc(F)cc2)c(=O)c2sccc21)c1ccccc1 | inactive: -22.2% |
| N#Cc1ccc(/C=N/NC(=O)c2cc(-c3cccs3)nc3ccccc23)cc1 | inactive: -6.9% |
| COc1ccc(OC)c(Nc2nc(-c3cccs3)cs2)c1 | inactive: 15.4% |
| c1ccc2cc(CSCc3nc4ccccc4[nH]3)ccc2c1 | inconclusive: -49% |
| O=C(NCC(=O)N(c1ccccc1)C(C(=O)NCC1CCCO1)c1ccccc1)c1ccco1 (configuration not stated) | inconclusive: -44% |
| CCOc1nc(NC2CCCCC2)nc(NC(C)(C)C)n1 | inconclusive: -30.4% |
| CCc1c(C)c(C#N)c2nc3ccccc3n2c1N1CCN(c2cc(C)ccn2)CC1 | inactive: 25.6% |
| COC(=O)C1=C(C)Nc2ncnn2C1c1ccc(OC(=O)c2ccccc2)cc1 (configuration not stated) | inactive: -24% |
| CCOc1ccc(/C(O)=C2/C(=O)C(=O)N(CCOCCO)C2c2cccnc2)cc1 (configuration not stated) | inactive: 18.2% |
| O=C(Nc1ccc(S(=O)(=O)N2CCOCC2)cc1)C1COc2ccccc2O1 (configuration not stated) | inconclusive: -50.5% |
| CC1(C)CC(=O)C/C(=N\NC(=O)c2cccs2)C1 | inconclusive: -37% |

No new results follow: an excerpt of the list.

| SMILES | activity change (PNC), negative = inhibition |
| --- | --- |
| Cc1ccc(S(=O)(=O)N(C)C)cc1NC(=S)NC(=O)C12CC3CC(CC(C3)C1)C2 | inconclusive: -53.9% |
| O=c1[nH]c(C2CCCN(S(=O)(=O)c3ccccc3)C2)nc2c1nnn2Cc1ccccc1 (configuration not stated) | inconclusive: -50.2% |

(further entries)

| SMILES | activity change (PNC), negative = inhibition |
| --- | --- |
| Cc1ccc(-c2csc3ncnc(-n4cnc5ccccc54)c23)cc1 | inconclusive: -32.4% |
| CC1CCCC(C)N1C(=O)CSc1nnc(-c2c[nH]c3ccccc23)o1 (configuration not stated) | inactive: -9.19% |
| O=C1c2sc3nc4ccccc4n3c2C(=O)N1c1ccccc1Cl | inactive: 20% |
| COc1ccc(CCNC(=O)C2CCN(S(=O)(=O)N3CCCCC3)CC2)cc1OC | inconclusive: -41.1% |
| COc1ccc(O)c(/C=c2/sc3nc4cc(C)c(C)cc4n3c2=O)c1 | inconclusive: -30.5% |
| Cc1ccc(S(=O)(=O)NC2(C(=O)O)CCCCC2)cc1 | inconclusive: -47.2% |
| CCCCn1c(SCC(=O)N2CCC(C(=O)OCC)CC2)nc2cc(S(N)(=O)=O)ccc21 | active: -100% |
| CCCCN(C(=S)Nc1ccccc1)C1CCS(=O)(=O)C1 (configuration not stated) | inconclusive: -35.9% |
| Cc1ccccc1NC(=O)CNC(=O)c1ccc(C(F)(F)F)cc1 | inactive: 7.83% |
| COC(=O)c1cc(OC)c(OC)cc1NC(=O)c1c(-c2ccccc2Cl)noc1C | inactive: 17.6% |
| COc1cccc(-c2nc(CS(=O)CC(=O)NCc3ccccc3)c(C)o2)c1 (configuration not stated) | inconclusive: -31% |
| COC(=O)c1ccccc1NC(=O)c1noc2c1CCCC2 | inactive: 15% |
| Cn1c(=O)c2c(nc(SCCNS(=O)(=O)c3ccccc3)n2C)n(C)c1=O | inconclusive: -57.2% |
| O=c1[nH]nnc2sc3c(c12)CCCC3 | inactive: -17.9% |
| CCOc1ccc(NC(=O)CSc2nc3ccccc3c(=O)n2CCCC(=O)N2CCCC2)cc1 | inactive: 19.2% |
| CN1CCN(C(=O)CCn2nc(-c3ccccc3)c3ccccc3c2=O)CC1 | inconclusive: -54.9% |
| Cc1ccsc1/C=N/n1c(-c2cccnc2)n[nH]c1=S | inconclusive: -45.1% |
| Cc1ccc(/C=C/C(=O)OCC(=O)Nc2cccc(S(=O)(=O)N(C)C)c2)o1 | inconclusive: -75.7% |
| CCn1cc(C(=O)NCc2ccco2)c(=O)c2cc(S(=O)(=O)N3CCc4ccccc4C3)ccc21 | inactive: 18.2% |

| SMILES | activity change (PNC), negative = inhibition |
| --- | --- |
| Cc1c(NC(=S)Nc2ccccc2)c(=O)n(-c2ccccc2)n1C | inconclusive: -53.3% |
| O=C(NCc1ccc(Cl)cc1)C1CCN(S(=O)(=O)c2cc([N+](=O)[O-])ccc2Cl)CC1 | inactive: -28.7% |
| Cc1cc(C)c(/C=N/NC(N)=O)c(C)c1/C=N/NC(N)=O | inconclusive: -33% |
| O=C(CSc1ccc(-c2ccco2)nn1)c1ccccc1 | inactive: -10.1% |
| O=C(N/N=C/c1c(Cl)cccc1Cl)c1ccccc1F | active: -84.1% |
| CCC1CCCCN1S(=O)(=O)c1ccc(NC(=O)c2cccs2)cc1 (configuration not stated) | active: -100% |
| CC12CN3CC(C)(CN(C1)C3c1ccc(Br)cc1)C2=O (configuration not stated) | inconclusive: -34.1% |
| O=C1CC(=O)N(CCc2ccc(F)cc2)C(=O)N1 | inconclusive: -35.3% |
| C/C=C/c1ccc(OC)c(OC(C)=O)c1 | inconclusive: -48.5% |
| O=C(c1ccccc1-c1nc2ccccc2[nH]1)N1CCOCC1 | inconclusive: -56.2% |
| O=C(CN1CCCc2ccccc21)NCc1ccccc1Cl | inconclusive: -40.3% |
| CCN(CC)CCCn1c(C)cc2c(c1=O)C(c1ccccc1)C(C#N)=C(N)O2 (configuration not stated) | inconclusive: -36.2% |
| CC(C)CNC(=O)c1ccc(Cl)c(Cl)c1 | inactive: 12.9% |
| CCOC(=O)Cn1c(=NC(=O)C2COc3ccccc3O2)sc2cc(S(N)(=O)=O)ccc21 (configuration not stated) | active: -134% |
| O=C(COC(=O)c1n[nH]c2ccccc12)NC(=O)NC1CCCCC1 | active: -127% |
| COc1ccc(CN(C)CC(=O)Nc2cc(OC)c([N+](=O)[O-])cc2C)c(OC)c1 | inconclusive: -36% |
| CC(=O)c1sc(Nc2ccccn2)nc1C | inconclusive: -36.7% |
| COc1ccc(C(=O)NCc2nnc(SCC(=O)N3CCc4ccccc43)o2)cc1OC | inactive: -15.5% |
| Cc1ccc(NC(=O)CSc2nnc(CNC(=O)c3c(F)cccc3Cl)o2)cc1 | active: -91.3% |

— PubChem BioAssay AID2417 (National Center for Advancing Translational Sciences (NCATS), 2010)
